Data published in article PMC7497323 (2020).
Plain letter strings leave the end groups untold.

Assay: general procedure: Fmoc solid-phase peptide synthesis; polystyrene Breipohl amide resin; DIPCDI/HOBt
Conditions: whole synthesis, analytical reversed-phase HPLC

Sequence	final HPLC purity [%]
RKKRRQRRR	99
KWFETWFTEWPKKRK	98
